In the supplement of paper PMC4635364:
Structures can show the parent of a compound that is named as a salt. This is one part of the list. Repeats in this data set agree poorly, so a single value says little.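 Cells: ReNCell VM human fetal ventral-midbrain neural progenitors, differentiated mitogen-free. Blinded raters compared doublecortin-stained (early neurons) or tyrosine hydroxylase-stained (dopaminergic neurons) images with untreated wells, where 0 means no change. After repeats and both raters were averaged, compounds scoring 2 or above became hits for retesting.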

What follows are compounds tested on ReNCell VM (assay: dopaminergic neuron differentiation score (TH+ cell fraction vs untreated, manual image score) (score (0 to 3)); higher = more TH+ dopaminergic neuron differentiation). Conditions: library: Tocriscreen; 2 uM; 4 weeks; BDNF 10 ng/ml + GDNF 10 ng/ml.

Row | SMILES | dopaminergic neuron differentiation score
1 | O=C(O)c1c(Sc2ccccc2)c2cc(Cl)ccc2n1Cc1ccc(Cl)cc1 | inactive: 0
2 | O=[N+]([O-])c1ccccc1S(=O)(=O)NCC1CCC(CNCC2CCc3ccccc3C2)CC1 (stereo unspecified) [NTNCB hydrochloride] | inactive: 0
3 | N[C@@H](CC(=O)Nc1ccc(Oc2cc(F)c(F)cc2Br)cc1)C(=O)O | inactive: 0
4 | CCCn1c(=O)c(C)cn2nc(N)nc12 | inactive: 0
5 | CS(=O)(=O)Nc1c(O)ccc2c1CCCC2C1=NCCN1 (stereo unspecified) | inactive: 0
6 | CC(C)[C@H]1c2ccc(F)cc2CC[C@@]1(CCN(C)CCCc1nc2ccccc2[nH]1)OC(=O)C1CC1 [NNC 55-0396 dihydrochloride] | inactive: 0
